# “And” between values parts separate entries of the source, which are not always exact repeats. Identical values can stand only once. About 1,800 (2.3%) of roughly 78,000 compounds were called active. The inconclusive results got no clear call from the source; some entries with a clear call stand among them for comparison. Cut-off read from the data, not from the text of the source: active = inhibition above about 30%; inconclusive = mostly about 10% to 28%; inactive = weaker than that.
# The chains behind the UniProt entries cited, without tags or fusion partners. Where a name states a change or a piece, a line headed by the entry shows the natural chain unless it says otherwise.
# UniProt Q01638: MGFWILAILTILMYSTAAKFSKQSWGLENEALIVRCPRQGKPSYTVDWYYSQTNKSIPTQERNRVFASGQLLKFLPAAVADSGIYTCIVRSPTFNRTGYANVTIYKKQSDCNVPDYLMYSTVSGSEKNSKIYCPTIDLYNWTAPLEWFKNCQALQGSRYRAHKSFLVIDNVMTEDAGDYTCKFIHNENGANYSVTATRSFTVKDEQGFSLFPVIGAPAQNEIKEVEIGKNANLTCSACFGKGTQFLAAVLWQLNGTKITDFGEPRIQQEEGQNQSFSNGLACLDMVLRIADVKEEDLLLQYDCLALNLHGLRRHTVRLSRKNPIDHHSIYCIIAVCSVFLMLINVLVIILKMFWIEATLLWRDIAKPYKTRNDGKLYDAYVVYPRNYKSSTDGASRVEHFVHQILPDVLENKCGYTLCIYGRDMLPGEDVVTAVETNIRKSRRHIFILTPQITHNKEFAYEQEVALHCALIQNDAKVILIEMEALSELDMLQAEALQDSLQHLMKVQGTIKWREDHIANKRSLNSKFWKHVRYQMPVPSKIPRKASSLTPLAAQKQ
# Molecular target: Interleukin-1 receptor-like 1 (Homo sapiens) (UniProt Q01638)
# Test: blocks human ST2 binding to IL-33, primary screen, biochemical, AlphaLISA (AID 1259354)
# Conditions: AlphaLISA ST2-Fc/biotin-IL-33 interaction, 1 h; at 17 µM, active compounds read high
row,SMILES,inhibition
1,COc1cc2c(=O)n(Cc3ccc(C(=O)N4CCCCCC4)cc3)c(=O)n(CC(N)=O)c2cc1OC,inactive
2,CN(C)C(=O)c1ccc2c(c1)N(CC(=O)NCc1ccccc1)C(=O)C1CCCCN21 (stereo not given),inactive
3,COc1ccc(C2CC(=O)C3=C(C2)Nc2ccccc2NC3c2ccc(C(F)(F)F)cc2)cc1 (stereo not given),inconclusive: 14%
4,O=C1OC(Nc2ccc([N+](=O)[O-])cc2O)c2ccccc21 (stereo not given),inconclusive: 10%
5,O=[N+]([O-])c1ccc(Sc2c(-c3ccccc3)nc3ncccn23)cc1,inconclusive: 16%
6,CC(C)c1cc(C2CCN(Cc3cc(F)cc(F)c3)CC2)[nH]n1,inactive
7,Cc1cc(C)nc(NC(=O)c2cccc(CN3CCCC(C(N)=O)C3)c2)c1 (stereo not given),inconclusive: 13%
8,CCOC(CCNC(=O)c1cc(-c2ccc(Br)s2)nc2ccccc12)OCC,inconclusive: 15%
9,O=C(O)Cn1c(=O)[nH]c2ccsc2c1=O,inactive
10,Cc1c(Cl)cccc1N1C(=O)C2CC=CC(C)C2C1=O (stereo not given),inactive
11,CCOc1cc(-c2ccc(OC)c(OC)c2)cc(=[O+]CC)c2c(C)oc(C)c12,inconclusive: 14%
12,CCC1=C(c2ccc(OC)cc2)S(=O)(=O)N(CC(=O)NCc2cc(OC)ccc2OC)C1=O,inactive
13,Cc1ccc(CNC(=O)c2ccc3nc4ccsc4c(=O)n3c2)cc1,inactive
14,O=C(C1CCCO1)N1CCC(NCCCn2ccc3ccccc32)CC1 (stereo not given),inconclusive: 15%
15,COCCN1CCC(CN2CC[C@@H](c3sccc3C)[C@H](O)C2)CC1,inconclusive: 18%
16,O=C(Nc1ccc(F)cc1F)c1ccc(-c2ccc(Cl)cc2)o1,inactive
17,COC(=O)c1cccnc1-n1c(=O)[nH]c2ncccc2c1=O,inactive
18,O=C(Nc1ccccc1[N+](=O)[O-])c1ccc(S(=O)(=O)N2CCCCC2)cc1,active: 35%
19,C=CCNC(=O)C1CC=CCC1C(=O)NCCc1ccccc1 (stereo not given),inactive
20,COc1cccc(NC(=O)CSc2nc3c(sc4ccccc43)c(=O)n2CCO)c1,inconclusive: 10%
21,Cc1cc(-c2csc(Nc3ccccn3)n2)ccc1F,inconclusive: 19%
22,CC1=NN(C(=O)c2ccccc2)C(c2ccccc2)C1 (stereo not given),inactive
23,Cc1nn(C)cc1-c1ccnc(NC[C@@H]2CCCO2)n1,inconclusive: 11%
24,CCOc1ccc2nc(N3CCCC(C(=O)N(C)Cc4cn(C)nc4C)C3)nc(C)c2c1 (stereo not given),inconclusive: 17%

row,SMILES,inhibition
1,CCCOc1ccc2oc(=O)c3c(c2c1)CCCN3C(=O)CN1CCC(C(=O)OCC)CC1,inconclusive: 11%
2,CCCCOc1ccc(NC(=O)C2CC2)cc1,inconclusive: 11%
3,O=C(NC1CCCCCCC1)C1CCCN1S(=O)(=O)c1cccc2nsnc12 (stereo not given),active: 33%
4,COCc1cc(C)c2c(n1)sc1c2nc(C)n2c3ccccc3nc12,inconclusive: 13%
5,Cc1c(Cl)cccc1NC(=O)c1cccs1,inconclusive: 10%
6,CCN(Cc1nccn1C)c1ccc(-c2nc(C(C)C)no2)cn1,inconclusive: 12%
7,CCOc1ccc(C(=O)NCc2nc3cccnc3n2Cc2ccc(C)cc2)cc1OCC,inconclusive: 13%
8,O=c1cc(CCn2cccn2)nc(-c2ccc(CN3CCNCC3)cc2)[nH]1,inconclusive: 18%
9,Cc1ccsc1C(CNC(=O)c1cn2c(n1)CNCC2)N(C)C (stereo not given),inactive
10,COc1ccc(-c2c3c(=O)n(C)c(=O)n(C)c3cn2Cc2ccc(Cl)cc2)cc1,inconclusive: 11%
11,N/C(=N\O)c1ccc(NC(=O)c2ccco2)cc1,inconclusive: 17%
12,O=C(CCc1nc(-c2ccccc2F)no1)Nc1ccc(F)cc1Cl,inactive
13,COc1ccc(C2C(C#N)=C(N)Oc3cc(C)oc(=O)c32)cc1OCc1ccccc1 (stereo not given),active: 32%
14,Cc1cc2c(c(Sc3ccccc3)n1)C(=O)OC2,inconclusive: 11%
15,CC(C)C(NS(=O)(=O)c1ccc2c(c1)oc(=O)n2C)C(=O)NCCc1ccccc1 (stereo not given),inconclusive: 12%
16,Cc1nc2ccc3nc(NC(=O)CN4C(=O)c5ccccc5C4=O)sc3c2s1,inconclusive: 24% and inconclusive: 16%
17,COC(=O)c1cccc(NC(=S)N[C@H]2CO[C@H]3[C@@H]2OC[C@@H]3Nc2nccc(C(C)(C)C)n2)c1,inactive
18,O=C(CSc1ccc2nnc(-c3cccnc3)n2n1)N1CCCC(c2ccccc2)CC1 (stereo not given),active: 36%
19,Cc1c(Cl)cccc1N1CSC2=C(C#N)C(c3ccccc3)CC(=O)N2C1 (stereo not given),inconclusive: 12%
20,CC1=CC(C)C2C(=O)N(Cc3ccco3)C(=O)C2C1 (stereo not given),inactive
21,O=C1N=c2ccc(Br)cc2=C1c1sc(Nc2cccc(C(F)(F)F)c2)nc1O,inactive
22,Cc1ccc(Cn2ccc(NC(=O)c3cc(-c4cccs4)on3)n2)cc1,inconclusive: 12%
23,COC(=O)c1ccc(N2C(=O)CSC2c2ccccc2)cc1 (stereo not given),inactive
24,COc1cccc(NC(=O)NC[C@H]2O[C@@H](CO)[C@@H](O)[C@H]2N2CCc3ccccc3C2)c1,inconclusive: 11%

row,SMILES,inhibition
1,CC(C)(C)c1nnc([C@H]2CCN(Cc3ncc[nH]3)C2)o1,inactive
2,COC[C@H]1CCCN1[C@@H]1[C@H](O)[C@H](CO)O[C@@H]1CNC(=O)Nc1ccccc1,inconclusive: 23%
3,CC(=O)Nc1ccc(S(=O)(=O)NCCNc2ccc([N+](=O)[O-])cc2Cl)cc1,inactive
4,O=S(=O)(Nc1ccc2ccccc2n1)c1cc(Br)ccc1Br,inactive
5,COc1cc(CN2CCN(c3cccc(Cl)c3)CC2)cc(OC)c1O,inconclusive: 10%
6,COc1cccc(CC2CN(C(=O)CNC(N)=O)CCO2)c1 (stereo not given),inactive
7,N#Cc1c(NC(=O)CCc2ccccc2)sc2c1CCCC2,inconclusive: 19%
8,COc1ccc2cc3cc(C(=O)NCc4ccc(C)cc4)sc3nc2c1,active: 31%
9,COC(=O)c1ccccc1NC(=O)c1noc2c1CCCC2,inconclusive: 17%
10,COc1ccc(-c2cc(N3CCN(S(=O)(=O)c4ccc(F)cc4)CC3)ncn2)cc1,inactive
11,CSc1ncc(CN2CCCC2c2nc(C(C)C)no2)cn1 (stereo not given),inactive
12,O=C(O)CN=C1CCCc2ccccc2N1,inactive
13,CCc1ccc(CN2CCOC(CCNS(C)(=O)=O)C2)nc1 (stereo not given),inconclusive: 11%
14,COc1cc(C(=O)Nc2ccc3c(c2)ncn3C(C)(C)C)cc(OC)c1OC,inconclusive: 18%
15,N#Cc1c(C(F)(F)F)cc(-c2cccs2)nc1SCC(=O)NCc1ccccc1,inconclusive: 11%
16,c1ccc2c(CNCc3ccc4c(c3)OCO4)c[nH]c2c1,inconclusive: 20%
17,CCOc1cc(C2Oc3nc(SC)nnc3-c3ccccc3N2C(C)=O)ccc1OC (stereo not given),inactive
18,CN(CCc1cn[nH]c1)c1ncnc2c1CCN(C(=O)C1CC1)C2,inactive
19,Brc1cccc(Oc2cccnc2)c1,inactive
20,COc1ccc(C(=O)C2CCCN(C(=O)CCCc3ccccc3)C2)cc1OC (stereo not given),inconclusive: 14%
21,CCOC(=O)c1sc2nc3c(c(-c4cccs4)c2c1N)CCCC3,inconclusive: 18%
22,CCOc1ccc(C2c3[nH]c4ccccc4c3CCN2C(=O)Cn2ccc(C)n2)cc1 (stereo not given),inconclusive: 19%
23,COc1ccccc1/C=C/C1=NC(=C\c2ccc(Br)cc2)/C(=O)O1,inconclusive: 27%
24,COc1ccc2cc3cc(C(=O)NCCN(C)C)oc3nc2c1,inconclusive: 15%

row,SMILES,inhibition
1,O=C(Nc1n[nH]c(C2CCCCC2)n1)N1CCCC(c2ccccc2)C1 (stereo not given),inactive
2,CCOC(=O)Cn1c(=O)n(-c2ccc(C)c(C)c2)c2nc(-c3ccc(SC)cc3)nc(C(N)=O)c21,inconclusive: 10%
3,Cc1cc(N(C)C)nc(Nc2ccc(NC(=O)C3CCCO3)cc2)n1 (stereo not given),inconclusive: 15%
4,O=C(c1ccco1)N(C/C=C/c1ccccc1)CCO,inactive
5,CN(Cc1ccccc1)C(=O)C[C@@H]1O[C@H](CNC(=O)NC2CCCCC2)[C@@H](O)[C@H]1O,inactive
6,Oc1oc(-c2ccc(Cl)cc2)nc1C=Nc1cccnc1,inconclusive: 24%
7,O=C(Cn1cnc2ccccc2c1=O)Nc1ccc(F)c(Cl)c1,inactive
8,CCOc1ccc(NC(=O)CSc2nc3c(c(=O)n2-c2ccc(Cl)cc2)SCC3)cc1,inactive
9,O=C(Nc1ccccc1-c1nc2ccccc2s1)c1ccc(N2C(=O)CCC2=O)cc1,inconclusive: 15%
10,Cc1ccc(Nc2cc(C)nc(Nc3ccc(NC(=O)c4cccc(C(F)(F)F)c4)cc3)n2)cc1,inconclusive: 12%
11,CC1CCCCC1NC(=O)C1(O)c2ccccc2NC(=O)N1c1ccccc1 (stereo not given),inconclusive: 10%
12,Cc1ccccc1OCC(=O)N1N=C(c2ccc(Br)cc2)CC1(O)C(F)(F)F (stereo not given),inactive
13,C/C(=N\OCc1nc2c3c4c(sc3ncn2n1)CCCCC4)c1cccs1,inconclusive: 22%
14,COc1ccc(OC)c(NC(=O)N2CCN(Cc3nc4cccnc4n3-c3cc(C)cc(C)c3)CC2)c1,inactive
15,C=CCc1cc(C=C2C(=O)c3ccccc3C2=O)cc(OCC)c1O,inconclusive: 14%
16,Cn1c(=O)[nH]c(=O)c2c1nc(N1CCCCCC1)n2CCSc1ncccn1,inconclusive: 11%
17,Cc1ccnc(NS(=O)(=O)c2ccc(C)c(C)c2C)c1,inconclusive: 28%
18,C=CC(C)(C)c1c2c(c(O)c3ccc(=O)oc13)C=CC(C)(C)O2,inconclusive: 10%
19,COc1cc(-c2nc(Cn3ccnc3C(C)C)c(C)o2)cc2c1OCO2,inactive
20,Cc1ccccc1CSc1nc2n(n1)C(c1cccs1)C1=C(CCCC1=O)N2 (stereo not given),inactive
21,O=C(N/C(=C/c1cccnc1)C(=O)N1CCCC1)c1ccco1,inactive
22,Cn1c(CN2C[C@H](O)C[C@H]2c2nc(-c3ccc(OC(F)(F)F)cc3)no2)nc2ccccc21,inconclusive: 29%
23,COc1ccc(-c2noc([C@@H]3CCCN3C3CCOCC3)n2)cn1,inconclusive: 10%
